In all, about 310,000 compounds went through this assay and about 17,000 (5.5%) were called active. The shares of active, inactive and inconclusive entries below differ from those in the screen. Calls follow the shape of the dose curve; as a rule, active = well fitted inhibition curve with a large enough effect; inconclusive = small, poorly fitted or top-dose-only effect, or effect the other way; inactive = no such curve, though single readings can be large or run the other way. Where the call is inconclusive, the potency comes from a doubtful curve fit.
These compounds were tested against Nuclear receptor ROR-gamma (Mus musculus) (UniProt P51450) (assay: qHTS for inhibitors of ROR gamma transcriptional activity). Conditions: Drosophila S2 Gal4-RORgamma UAS-luciferase reporter, 20 h; activity change, negative = inhibition: at 53.6 µM (top of the series).
How it was run: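 Luciferase reporter read in Schneider cells carrying Gal4-RORγ (mouse) and UAS-Photinus luciferase; cells given compound 1 h before 700 uM copper sulfate induction, then incubated 20 h at ambient temperature.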
% is scaled to controls: 0 for no effect and ±100 for the full control effect; potency is read from the fitted curve at half-maximal effect.
Also: nearly all actives have a fitted effect of over 60% in size.

Amino acid sequences for entries named in this document (tags omitted). A change or cut given only in a name is not applied to a line headed by its entry.
UniProt P51450: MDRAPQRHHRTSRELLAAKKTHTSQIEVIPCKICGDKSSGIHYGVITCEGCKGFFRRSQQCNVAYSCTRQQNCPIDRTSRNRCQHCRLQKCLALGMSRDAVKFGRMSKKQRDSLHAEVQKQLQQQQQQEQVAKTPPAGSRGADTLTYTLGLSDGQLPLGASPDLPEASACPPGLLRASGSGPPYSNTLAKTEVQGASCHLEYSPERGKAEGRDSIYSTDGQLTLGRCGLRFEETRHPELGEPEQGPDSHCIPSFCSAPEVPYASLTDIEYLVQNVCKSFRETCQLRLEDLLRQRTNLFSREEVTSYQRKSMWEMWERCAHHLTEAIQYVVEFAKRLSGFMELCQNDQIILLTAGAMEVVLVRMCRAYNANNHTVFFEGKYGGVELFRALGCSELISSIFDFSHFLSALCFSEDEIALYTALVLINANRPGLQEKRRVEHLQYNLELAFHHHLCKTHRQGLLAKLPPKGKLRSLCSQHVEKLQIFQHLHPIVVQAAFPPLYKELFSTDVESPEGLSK

Compound	Potency	activity change, negative = inhibition
Cc1cccc(NC(=O)COC(=O)c2ccc3c(c2)OCO3)c1C	inconclusive: 0.891 µM [activator, partial curve]	
COc1ccc(N(C)S(=O)(=O)c2cccc(C(=O)Nc3ccc(-n4cnnn4)cc3)c2)cc1	inconclusive: 11.2 µM [activator, partial curve]	
CCCn1c(N)c(C(=O)COC(=O)c2c(C)noc2C)c(=O)n(C)c1=O		inactive: 20.7%
CNC(=O)C1CCC(=O)N1Cc1ccccc1Cl (configuration not stated)		inactive: 7.74%
O=C1CC(Sc2nnc(-c3ccccc3O)o2)C(=O)N1c1ccccc1 (configuration not stated)	inconclusive: 4.47 µM [inhibitor, single point]	
CC(=O)/C=C(/C)NC(Cc1c[nH]c2ccccc12)C(=O)O (configuration not stated)	inconclusive: 35.5 µM [inhibitor, single point]	
COc1ccccc1C(CCNCc1ccc(N(C)C)cc1)c1ccc(OC(C)C)cc1 (configuration not stated)	inconclusive: 17.8 µM [inhibitor, single point]	
Cn1c(SCc2ccccc2Cl)nnc1-c1cnccn1		inactive: 25.2%
CCCCOC(=O)Nc1cc(OC)c(Cl)cc1OC	inconclusive: 31.6 µM [activator, single point]	
Cc1ccccc1OCC(=O)Nc1ccc2c(c1)COC2=O	inconclusive: 15.8 µM [inhibitor, single point]	
Nc1nc(CN2CCN(c3ccccc3F)CC2)nc(Nc2ccccc2)n1	inconclusive: 5.62 µM [inhibitor, partial curve]	
CC(Sc1nc(-c2ccccc2)cc(C(F)(F)F)n1)C(=O)N1CCOCC1 (configuration not stated)	inconclusive: 6.31 µM [inhibitor, single point]	
Cc1cccc(NC(=S)NCCc2ccccc2)n1	active: 0.562 µM	
C=CCn1c(SCC(=O)Nc2ccc(C)cc2C)nnc1-c1cccnc1	inconclusive: 20 µM [activator, single point]	
CC(=O)Nc1ccc(Nc2cc(C(C)C)nc3c(-c4ccccc4)c(C)nn23)cc1	inconclusive: 15.8 µM [inhibitor, single point]	
COc1ccc(C(C[N+](=O)[O-])c2c(-c3ccccc3)cc3ccccn23)cc1 (configuration not stated)		inactive: -9.73%
Cc1ccc(/C=N/NC(=S)N2CCOCC2)cc1	active: 0.562 µM	
CN1C(C(=O)NCc2cccc(C(F)(F)F)c2)CC2Cn3c(nc4cc(Cl)c(Cl)cc43)C21 (configuration not stated)	inconclusive: 12.6 µM [activator, single point]	
O=C(/C=C/c1ccc(Cl)cc1)NCc1cccs1	inconclusive: 0.562 µM [activator, partial curve, poor fit]	
Cc1ccc2nc(NNC(=O)c3ccc4c(c3)OCCO4)sc2c1	active: 4.47 µM	
CC(=O)O[C@H]1C(=O)[C@@]2(C)[C@H]([C@H](OC(=O)c3ccccc3)[C@]3(O)C[C@H](OC(=O)[C@H](O)[C@@H](NC(=O)c4ccccc4)c4ccccc4)C(C)=C1C3(C)C)[C@]1(OC(C)=O)CO[C@@H]1C[C@@H]2O	inconclusive: 2.24 µM [activator, full curve, poor fit]	inactive: 41.8% [at 10 µM]
CCN(CC)Cc1c(C(=O)N/N=C/c2cccs2)nnn1-c1nonc1N	inconclusive: 20 µM [inhibitor, single point]	
O=C1N/C(=C/c2cccn2-c2ccccc2)C(=O)N1c1cccc(Cl)c1		inactive: -33%
Cc1ccsc1C(=O)N1CCCC(C(=O)c2cc(F)ccc2F)C1 (configuration not stated)	inconclusive: 35.5 µM [activator, single point]	

Arranged by molar mass (ascending): some entries from above.
Compound	Potency	activity change, negative = inhibition
Nc1nc(CN2CCN(c3ccccc3F)CC2)nc(Nc2ccccc2)n1	inconclusive: 5.62 µM [inhibitor, partial curve]	
CCN(CC)Cc1c(C(=O)N/N=C/c2cccs2)nnn1-c1nonc1N	inconclusive: 20 µM [inhibitor, single point]	
CC(=O)O[C@H]1C(=O)[C@@]2(C)[C@H]([C@H](OC(=O)c3ccccc3)[C@]3(O)C[C@H](OC(=O)[C@H](O)[C@@H](NC(=O)c4ccccc4)c4ccccc4)C(C)=C1C3(C)C)[C@]1(OC(C)=O)CO[C@@H]1C[C@@H]2O	inconclusive: 2.24 µM [activator, full curve, poor fit]	inactive: 41.8% [at 10 µM]

(cont.)

Compound	Potency	activity change, negative = inhibition
COc1cc(/C=N/n2cc(-c3ccccc3)[nH]c2=S)cc(OC)c1O	inconclusive: 10 µM [inhibitor, single point]	
COC(=O)C1=C(O)/C(=C\c2ccc(OCC(=O)Nc3ccc(OC)cc3)cc2)N=C1C		inactive: -17.2%
COc1cccc(OC)c1C(=O)Nc1cc(C)nn1-c1nc2ccccc2[nH]1	active: 3.55 µM	
O=C1c2ccccc2C(=O)N1Cc1nc(-c2ccncc2)no1	inconclusive: 15.8 µM [inhibitor, single point]	
COc1ccc(S(=O)(=O)N2CCN(c3ccccc3OC)CC2)cc1		inactive: 4.05%
O=S(=O)(c1ccc(NC(=S)N/N=C/c2c3ccccc3cc3ccccc23)cc1)N1CCOCC1	inconclusive: 5.01 µM [inhibitor, full curve, poor fit]	
[O-]/[N+](=C/c1ccc(F)cc1)c1ccccc1		inactive: -0.545%
Cc1ccc2c(C(=O)CNc3nncs3)c(C)[nH]c2c1	inconclusive: 35.5 µM [inhibitor, single point]	
OC(CN1CCCCC1)Cn1c(C(F)(F)F)nc2ccccc21 (configuration not stated)		inactive: 42%
O=C(NC1=NCCS1)C1CC2CCC1C2 (configuration not stated)	inconclusive: 20 µM [inhibitor, single point]	
CC(=O)Nc1ccccc1OCc1nnc(-c2ccccc2Cl)o1		inactive: -8.45%
COc1ccc(NC(=O)/C=C/c2ccc(F)cc2)cn1	inconclusive: 0.708 µM [activator, full curve]	
CN(C)/C=C/C(=O)c1cnc(-c2ccccc2)s1	inconclusive: 6.31 µM [activator, full curve]	
C=CCn1c(COc2ccccc2)nnc1SCc1ccc(C#N)cc1		inactive: 16.7%
Cc1ccc(C(=O)NC2CC3CCCC(C2)N3C(=S)NCc2ccco2)cc1 (configuration not stated)	inconclusive: 35.5 µM [inhibitor, single point]	
COc1ccc(-c2csc(NC(=O)Cc3cc(OC)c(OC)c(OC)c3)n2)cc1OC	inconclusive: 25.1 µM [activator, single point]	
O=C(Oc1cccc2c(=O)[nH]ccc12)c1ccccc1	inconclusive: 3.16 µM [inhibitor, single point]	
CN(C)CCCNC(=O)/C(=C/c1ccc(-c2ccc([N+](=O)[O-])cc2)o1)NC(=O)c1ccccc1		inactive: -11.5%
CS(=O)(=O)N1CCN(c2ccccc2NC(=O)c2cc(Br)ccc2Cl)CC1		inactive: 19%
CC(C)c1[nH]nc2c1C(C1C=CCCC1)C(C#N)=C(N)O2 (configuration not stated)	inconclusive: 2.51 µM [activator, full curve]	
FC(F)(F)c1cc(-c2ccco2)nc(NCc2ccco2)n1	inconclusive: 14.1 µM [activator, single point]	
Cc1ccccc1OCC(=O)Nc1ccccc1-c1ccccc1	inconclusive: 10 µM [inhibitor, single point]	
Cc1ccc(S(=O)(=O)Oc2ccc(C)cc2/C=N/N=C2\NC(=O)C(C)S2)cc1 (configuration not stated)	active: 12.6 µM	
CCCCN(CC)CCNC(=O)CCC(=O)Nc1ccc2nc(N3CCN(C)CC3)cc(C)c2c1	inconclusive: 35.5 µM [inhibitor, single point]	

Compound	Potency	activity change, negative = inhibition
CC1(C)SC2c3ccccc3C(=O)N2[C@@H]1C(=O)O (some centres not stated)		inactive: -22.4%
COc1ccc2c(c1)c1nc3ccccc3nc1n2Cc1ccc(OC(C)C)c(OC)c1	inconclusive: 0.794 µM [inhibitor, single point]	
Cc1nn(-c2nc3ccccc3s2)c(N)c1-c1ccc(Cl)cc1	inconclusive: 0.794 µM [activator, partial curve, poor fit]	
Cc1ccc(-c2csc3ncnc(N4CCN(c5ccccc5O)CC4)c23)cc1		inactive: 13.2%
Cc1cc(C)n2nc(Cc3ccccc3)nc2n1	inconclusive: 20 µM [inhibitor, single point]	
CS(=O)(=O)N1CCC[C@@]2(CCN(Cc3nccs3)C2)C1		inactive: 2.56%
CCCn1c(N2CCN(C)CC2)nc2c1c(=O)[nH]c(=O)n2C	inconclusive: 0.282 µM [inhibitor, partial curve, poor fit]	
Cc1ccc(-n2c(C)csc2=N)cc1	inconclusive: 35.5 µM [inhibitor, single point]	
Cc1ccc(NC(=O)CCc2c[nH]c3ccccc23)nc1		inactive: 15.1%
Cc1csc2ncc(C(=O)N3CCCc4ccccc43)c(=O)n12	inconclusive: 0.708 µM [inhibitor, single point]	
COc1ccc(NC(=O)CN2CCN(C3c4ccccc4-c4ccccc43)CC2)cc1	inconclusive: 31.6 µM [activator, single point]	
CSc1cccc(NC(=O)N2CCc3ccc(NC(=O)c4ccccn4)cc3C2)c1	inconclusive: 2.82 µM [activator, partial curve]	
Cc1ccc(-c2nn(C)c(=O)c3ccccc23)cc1CNC(=O)CN1CCOCC1	inconclusive: 25.1 µM [inhibitor, single point]	
CCN(CC)CCn1c2ccccc2c2cnc(N)c(C#N)c21	active: 0.178 µM	
Cn1ccnc1SCC(=O)c1ccc([N+](=O)[O-])cc1	inconclusive: 35.5 µM [inhibitor, single point]	
COc1ccc2nc3c(cc2c1)c(NC(=O)C1CCCO1)nn3CC(C)C (configuration not stated)		inactive: 24.7%
COc1ccc(C(=O)NC2CCCc3c2cnn3-c2ccccc2F)o1 (configuration not stated)	inconclusive: 25.1 µM [activator, single point]	
CCOc1ccc(C2=C/C(=C/c3cccnc3)C(=O)O2)cc1		inactive: 3.55%
O=C(Nc1cccc([N+](=O)[O-])c1)C1CC(=O)N(Cc2ccccc2)C1 (configuration not stated)	inconclusive: 11.2 µM [activator, partial curve]	
Cc1c(CNC(=O)c2cnn3c2NC(c2ccc(Br)cc2)CC3C(F)(F)F)cnn1C (configuration not stated)	inconclusive: 35.5 µM [inhibitor, single point]	
O=[N+]([O-])c1ccc(O)c(/C=N/Nc2ccccc2Cl)c1	inconclusive: 31.6 µM [inhibitor, single point]	
CCOc1ccccc1NC(=S)NC1CC2CCC1C2 (configuration not stated)	active: 2.82 µM	
CC1(O)CC(c2ccc(Cl)cc2)=NN1C(=O)c1ccc([N+](=O)[O-])cc1 (configuration not stated)	inconclusive: 35.5 µM [inhibitor, single point]	

Source: PubChem BioAssay AID2551 (National Center for Advancing Translational Sciences (NCATS), 2010)
